Measurements: publication PMC7819943, “Rice protein-binding microarrays: a tool to detect cis-acting elements near promoter regions in rice”
Some of the results follow.

Target: T1, OsSMF1 (Oryza sativa, UniProt Q6ZLB0 1-436)
T1 sequence: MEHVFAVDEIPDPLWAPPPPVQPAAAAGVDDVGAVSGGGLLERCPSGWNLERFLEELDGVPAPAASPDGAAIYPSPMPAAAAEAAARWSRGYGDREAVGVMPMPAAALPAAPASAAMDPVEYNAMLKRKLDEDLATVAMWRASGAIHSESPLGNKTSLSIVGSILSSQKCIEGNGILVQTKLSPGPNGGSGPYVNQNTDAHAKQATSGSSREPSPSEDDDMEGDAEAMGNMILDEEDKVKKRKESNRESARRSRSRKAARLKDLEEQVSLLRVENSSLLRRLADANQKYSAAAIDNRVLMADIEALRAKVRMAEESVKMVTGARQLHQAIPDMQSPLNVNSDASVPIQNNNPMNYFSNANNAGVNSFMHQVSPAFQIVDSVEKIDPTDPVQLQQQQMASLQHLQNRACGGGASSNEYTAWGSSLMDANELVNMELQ
Assay: protein-binding microarray (RPBM); PBS, 2% BSA, 51.3 ng/ul salmon testes DNA, 50 uM zinc acetate, 200 nM TF, 25 C, 1 h; high values mean tight binding
Settings: protein: recombinant; tags: N-terminal polyhistidine and DsRed monomer fusion (pET32a); chain copies: 2; label: CyDye5-dUTP incorporated in the synthesized complementary strand; 3' TTTTT single-stranded linker to array surface; dsDNA, one strand shown
How it was run: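 The binding signal for each feature is its fluorescence intensity in arbitrary units. An Axon 4000B scanner was used to read a custom Agilent array that had been made double-stranded with Cy5-dUTP primer extension, blocked with 2% BSA, incubated at 25 °C for 1 h with 200 nM protein in PBS, 2% BSA, salmon testes DNA and 50 µM zinc acetate, and washed. The protein was an N-terminal polyhistidine–DsRed transcription factor fusion from E. coli BL21-CodonPlus, purified on Ni–NTA.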

Sequence	binding signal
CATGCAACATACCCATCCCATCGTCATCCTCATCATCATCCGGAGTCACCTAGTGCAG	3660 fluorescence intensity (a.u.)
GTGGGCCATACGTGTGGCTCGTAGTCTCTTACGTTCACTGCGGAGTCACCTAGTGCAG	3650 fluorescence intensity (a.u.)
GGGCAACTTGATACTGTGAAACATGTCATCTACGTAAACGCGGAGTCACCTAGTGCAG	4810 fluorescence intensity (a.u.)
ACGCGCACCAGTGCGCCTGACTCGACCAGCGCGGCGAGCGCGGAGTCACCTAGTGCAG	4960 fluorescence intensity (a.u.)
CACCCAAGCCAAGCCCACGACCCGCACCGCAACACGCACACGGAGTCACCTAGTGCAG	24200 fluorescence intensity (a.u.)
GTGTGGCATGCCACATCAACGCCACGTAGAATTCTGAAAGCGGAGTCACCTAGTGCAG	5240 fluorescence intensity (a.u.)
AGATTAAAGAGGTTTCAAATAAATGAAATGAGTCATACGCCGGAGTCACCTAGTGCAG	8130 fluorescence intensity (a.u.)
GGCACAGTGGCATCTCTAGTACTCCGTACTACTGCTACTACGGAGTCACCTAGTGCAG	20300 fluorescence intensity (a.u.)
AACTAGATTACATCACTTGTCGGGTGATACTTTACATGTTCGGAGTCACCTAGTGCAG	4100 fluorescence intensity (a.u.)
GATGGACCAATTTGATTGTTGTTGGATTCTACGATGCATGCGGAGTCACCTAGTGCAG	3780 fluorescence intensity (a.u.)
TGTGCTCGCGGGTGTGTGTGACGTGCGCGTGTAGTGGTGTCGGAGTCACCTAGTGCAG	7370 fluorescence intensity (a.u.)
TTCGCGCGCCCCTCTCGCCCTTCGCTATCGCTACACACCACGGAGTCACCTAGTGCAG	3890 fluorescence intensity (a.u.)
TCACTAAAACAATAATTAGCCGTAAATACGAGCACGCGTGCGGAGTCACCTAGTGCAG	3460 fluorescence intensity (a.u.)
TTCATATTTATTTGATGACGTGGCTAATCCTGGTCGGATCCGGAGTCACCTAGTGCAG	40700 fluorescence intensity (a.u.)
TCTGCCAGAAGCTGACGATGATGTGTGTGTTATTATGGTCCGGAGTCACCTAGTGCAG	5620 fluorescence intensity (a.u.)
AAGTCAAACATTTGGCGCCAAATTGAAAATCCCTTTCTACCGGAGTCACCTAGTGCAG	3500 fluorescence intensity (a.u.)
TGCTACTTCGCTTGCAGCGTGCGTGTCGGCTAGACCGTCCCGGAGTCACCTAGTGCAG	4640 fluorescence intensity (a.u.)
GCGGCCCAATGAGTTGGGCCGGGACGGCCACGTGGCGGCACGGAGTCACCTAGTGCAG	22300 fluorescence intensity (a.u.)
TAAATAATTGCCATTGCCATGCTGCCACGTGTCATGGGACCGGAGTCACCTAGTGCAG	49900 fluorescence intensity (a.u.)
CCACCAAACCCGACCCGCCCGCGTCGCGACCACACCCGCCCGGAGTCACCTAGTGCAG	3280 fluorescence intensity (a.u.)
GTATACCACTGCCGTCAGCAACAGTTGTGTGGAATTGCAGCGGAGTCACCTAGTGCAG	5300 fluorescence intensity (a.u.)

Part of the list above, as labelled records.
TCACTAAAACAATAATTAGCCGTAAATACGAGCACGCGTGCGGAGTCACCTAGTGCAG
  binding signal = 3460 fluorescence intensity (a.u.)
AAGTCAAACATTTGGCGCCAAATTGAAAATCCCTTTCTACCGGAGTCACCTAGTGCAG
  binding signal = 3500 fluorescence intensity (a.u.)

Later entries:

Sequence	binding signal
ATAAGTGTAGCCATAAGTTTCCGCGTCCAACTTTGATCGTCGGAGTCACCTAGTGCAG	3510 fluorescence intensity (a.u.)
TCCTCTCCTCTCGAGCTCACCTATTATTGGTCCATTCTAGCGGAGTCACCTAGTGCAG	3140 fluorescence intensity (a.u.)
TCAACACACGTCAATTACAACTATGGGCTTTTGATCGAGACGGAGTCACCTAGTGCAG	3620 fluorescence intensity (a.u.)
AACTTATCCTCCGTAATTTGGTAACGTGTTAACACTCAAGCGGAGTCACCTAGTGCAG	25300 fluorescence intensity (a.u.)
ATTAAGATGCCATTCATGACTAGATGTTCTCTGTCAGATGCGGAGTCACCTAGTGCAG	3780 fluorescence intensity (a.u.)
GATGTGACGTGATGTGATGGAAAGTTGGGAGTTGGGGAAACGGAGTCACCTAGTGCAG	6040 fluorescence intensity (a.u.)
ACCTCCGTGCGTGCGGCCTCTGCAACGGCGGGCGTCGCCACGGAGTCACCTAGTGCAG	3250 fluorescence intensity (a.u.)
GCCTTCAGCACCTCGTACGTGACACCGTACGTGCACCTCTCGGAGTCACCTAGTGCAG	3280 fluorescence intensity (a.u.)
TCCTCTCGCCATCGAGTCCGACACGTCCACATCGCCATTACGGAGTCACCTAGTGCAG	6100 fluorescence intensity (a.u.)
TTTGATCACATCTTACACTGCCGGGTGGGGTCAGCATCTGCGGAGTCACCTAGTGCAG	3300 fluorescence intensity (a.u.)
TTTCATCCCCATTATATTCTTCTAGCATGACTCATTTGCACGGAGTCACCTAGTGCAG	7400 fluorescence intensity (a.u.)
GCCTCGAGGGATGAAATTCCACATCCCTATATTCACATGTCGGAGTCACCTAGTGCAG	3440 fluorescence intensity (a.u.)
ACCAAGAGGATTACCTGTGTAGGTGTTGTGTGCTGTGGAACGGAGTCACCTAGTGCAG	11000 fluorescence intensity (a.u.)
CATGTGAGTATTGTGTGATGACATAATACGGAGTTGCAGCCGGAGTCACCTAGTGCAG	5080 fluorescence intensity (a.u.)
CCCCGCCGACGCCGATGCCGACGCCGCCGCCGCCTCCCCACGGAGTCACCTAGTGCAG	3240 fluorescence intensity (a.u.)
CGCGTCTGCATACAGGTCATCCATCTCTCTCACTCTGCCTCGGAGTCACCTAGTGCAG	4340 fluorescence intensity (a.u.)
GTCAGTCAAGGTATTGCAGAGGATACTTCTGACTTGGTATCGGAGTCACCTAGTGCAG	3740 fluorescence intensity (a.u.)
CGCATGTGTCATCCGCGTCGGTCTCGTTCCTCTCCTTCCTCGGAGTCACCTAGTGCAG	5150 fluorescence intensity (a.u.)
CTGATGATGATGGCAGTGACGATTGCTAACACCCTGGTGCCGGAGTCACCTAGTGCAG	20800 fluorescence intensity (a.u.)
GTTGCGTACTTGCGTCATTGCGCCAGGTGAAAGTGAACGACGGAGTCACCTAGTGCAG	3230 fluorescence intensity (a.u.)
CCGGTGACGTGTATCCGCCGTGTCAGCCTCGTCCGGCTTCCGGAGTCACCTAGTGCAG	15900 fluorescence intensity (a.u.)

Looked up above:
Entry for ACCAAGAGGATTACCTGTGTAGGTGTTGTGTGCTGTGGAACGGAGTCACCTAGTGCAG under binding signal: 11000 fluorescence intensity (a.u.)
Entry for CCCCGCCGACGCCGATGCCGACGCCGCCGCCGCCTCCCCACGGAGTCACCTAGTGCAG under binding signal: 3240 fluorescence intensity (a.u.)
